This test in a line: qHTS Assay for Lipid Storage Modulators in Drosophila S3 Cells.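 On cell number change: cells counted by Cell Tracker Red CMTPX staining in the red channel.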 The conditions noted are these: BODIPY lipid droplet fluorescence, 18-24 h; for cell number change: measured here: cell count max response, cells fed with added oleic acid. The method in brief:
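Drosophila S3 cells got compounds at several concentrations plus oleic acid (400 uM solution). Laser-scanning cytometry with 488 nm excitation read lipid droplets at 500-530 nm and cells at 575-640 nm. Percent activity was relative to 20 uM Triacsin C.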

Where [1] appears, read: measured here: lipid fluorescence (Fed channel) AC50, cells fed with added oleic acid.
Where [2] appears, read: measured here: cell number channel AC50, cells fed with added oleic acid.

Experimental findings from PubChem BioAssay AID2685 (National Center for Advancing Translational Sciences (NCATS), 2010) are described below.

The other results are listed elsewhere or left out. Further columns of the screen follow, without active or inactive calls. Most of these compounds were active or inconclusive in the main read-out, so they are no random draw. Potencies come from curve fits of mixed quality, noted in brackets.

`CCCCC(=O)Nc1ccc(C(=O)NNC(=S)NC(=O)c2ccccc2[N+](=O)[O-])cc1`: the cell number change is 16%. Also, the AC50 under setting [1] was 29.1 µM [rising, single point].
Consider `Cc1cccc(OCCCC(=O)Nc2nnc(C3CCCO3)s2)c1C` (stereo not drawn), for which the cell number change is -11.4%.
Take `Cc1ccc(F)c([C@H]2[C@H]3C=CC[C@@H](C)[C@@H]3C(=O)N2Cc2ccccc2)c1`: the cell number change is -58.9%. In addition, the half-maximal activity concentration (AC50) under setting [2] is 16.4 µM [falling, single point]. The concentration at half-maximal activity (AC50) under setting [1] is 20.6 µM [falling, single point].
For the compound `O=C(Oc1ccc2c(c1)O/C(=C\c1ccncc1)C2=O)c1cccs1`, the cell number change was -28.5%. The half-maximal activity concentration (AC50) under setting [1] is 13 µM [falling, single point].
For the compound `CNc1nc(C)c(C(C)=O)cc1C#N`, the cell number change was -9.57%.
As for `COc1cc(CNc2nnnn2C)ccc1OCc1c(F)cccc1Cl`, the cell number change is -0.814%. Under setting [1], the concentration at half-maximal activity (AC50) was 0.103 µM [falling, full curve, poor fit].
On to `O=C(Cc1ccc([N+](=O)[O-])cc1)Nc1cccnc1`, for which the cell number change amounted to 11.6%. In addition, the half-maximal activity concentration (AC50) under setting [2] was 6.51 µM [falling, single point]. In addition, under setting [1], the concentration at half-maximal activity (AC50) is 5.17 µM [falling, single point].
`CC(=O)N1CCC(C(=O)Nc2ccccc2)(N(Cc2ccccc2)C(=O)c2cccnc2)CC1`: the cell number change is 26.1%. In addition, the AC50 under setting [1] was 29.1 µM [rising, single point].
`COC(=O)C1=CNC=C(C(=O)OC)C1c1cccc2ccccc12`: the cell number change was 2.78%. The half-maximal activity concentration (AC50) under setting [1] was 29.1 µM [falling, partial curve, poor fit].
Take `C=CCN1CC(c2nc3ccccc3n2CCOc2ccccc2)CC1=O` (stereo not drawn): the cell number change is -26.5%. The AC50 under setting [1] is 0.651 µM [rising, single point].
For `CCc1ccc(S(=O)(=O)/N=C2/C=C(Sc3ncn[nH]3)C(=O)c3ccccc32)cc1`, the cell number change was -72.5%. In addition, the AC50 under setting [2] is 20.6 µM [falling, partial curve]. In addition, the AC50 under setting [1] was 20.6 µM [falling, partial curve].
For `CCN(CC)CCNC(=O)c1ccc(NC(=O)COc2ccc3c(c2)CCC3)cc1`, the cell number change was -16.9%. Moreover, under setting [1], the concentration at half-maximal activity (AC50) is 0.00461 µM [rising, full curve, poor fit].
In the case of `O=C(CCCNS(=O)(=O)c1cccc2nsnc12)NCc1ccc(Cl)cc1`, the cell number change is -17.1%. For the same compound, the AC50 under setting [1] is 13 µM [falling, partial curve].
`Cc1ccc(NC(=O)COC(=O)CN2CCCCCC2=O)c(C)c1`: the cell number change was -8.97%. For the same compound, under setting [2], the AC50 is 0.82 µM [rising, full curve]. Further, the concentration at half-maximal activity (AC50) under setting [1] was 0.651 µM [rising, full curve].
For the compound `CCCc1cc(=O)[nH]c(Nc2ccc(OC)c(Cl)c2)n1`, the cell number change is -45.8%. Further, the AC50 under setting [2] was 32.6 µM [falling, partial curve].
In the case of `Cc1ccc(S(=O)(=O)N2CCOCC2)cc1C(=O)OCC(=O)N(Cc1ccccc1)C(C)C`, the cell number change was -9.11%. For the same compound, the half-maximal activity concentration (AC50) under setting [1] is 32.6 µM [falling, single point].
As to `COc1ccc(N2CC(NC(=O)NCC(C)C)CC2=O)cc1` (stereo not drawn), the cell number change came to 1.04%. Moreover, the concentration at half-maximal activity (AC50) under setting [2] is 0.206 µM [rising, full curve, poor fit].
For `CCOc1ccccc1N(CC(=O)Nc1ccc2c(c1)OCO2)S(C)(=O)=O`, the cell number change amounted to 32.3%. In addition, the AC50 under setting [2] was 2.91 µM [rising, partial curve, poor fit]. Besides, the AC50 under setting [1] was 0.164 µM [rising, full curve, poor fit].
In the case of `O=C(C[n+]1ccccc1)N/N=C/c1ccc(Br)cc1`, the cell number change is 12.1%.
Consider `COc1nc(N)c(S(=O)(=O)c2ccccc2C)cc1C#N`, for which the concentration at half-maximal activity (AC50) under setting [1] was 3.26 µM [rising, full curve].
As for `CCc1nn(C(C)C(=O)NCc2cccc(OC)c2)c(=O)c2cc3occc3n12` (stereo not drawn), the cell number change was -79.4%. Also, under setting [2], the half-maximal activity concentration (AC50) was 29.1 µM [falling, single point].
On to `COc1ccc(-n2c(-c3ccco3)n[nH]c2=S)cc1`, for which the cell number change amounted to 18.3%. Also, the AC50 under setting [1] was 20.6 µM [rising, single point].
For the compound `COc1ccc(/C=C/C(=O)NCCc2ccc(S(N)(=O)=O)cc2)cc1`, the cell number change is 92.1%. For the same compound, under setting [2], the AC50 was 20.6 µM [rising, partial curve]. In addition, under setting [1], the AC50 is 0.103 µM [rising, full curve, poor fit].
With `COc1ccc(C(=O)NC(=S)NNC(=O)c2ccncc2)cc1Br`, the cell number change is -12.1%. Moreover, the half-maximal activity concentration (AC50) under setting [1] is 0.731 µM [rising, partial curve, poor fit].
Turning to `O=C(CN1CCN(Cc2ccc3c(c2)OCO3)CC1)N1CCc2[nH]c3ccc(F)cc3c2C1`, under setting [1], the AC50 is 3.66 µM [rising, single point].
Consider `Cc1ccccc1NC(=O)CSCc1nc(N)nc(Nc2ccccc2C)n1`, for which the cell number change stood at 20.6%. The AC50 under setting [1] is 25.9 µM [rising, single point].
Regarding `NS(=O)(=O)c1ccc(CCNC(=O)CSc2nc3ccsc3c(=O)n2CC2CCC(C(=O)O)CC2)cc1` (stereo not drawn), the cell number change is -46.9%. In addition, the AC50 under setting [2] is 5.17 µM [falling, partial curve]. Besides, the AC50 under setting [1] was 0.0058 µM [falling, full curve, poor fit].
For `CC(C)C(NC(=O)c1c(F)cccc1F)C(=O)OCN1C(=O)c2ccccc2C1=O` (stereo not drawn), the cell number change is 2.51%. Under setting [1], the half-maximal activity concentration (AC50) was 29.1 µM [rising, single point].
As to `O=C1C(Cc2ccccc2)Nc2ncnc(N3CCN(c4ccccc4)CC3)c2N1Cc1ccccc1` (stereo not drawn), the cell number change was found to be 29.5%. Moreover, the concentration at half-maximal activity (AC50) under setting [1] was 20.6 µM [rising, partial curve].
Turning to `Cc1ccccc1Nc1c(-c2cccnc2)nc2cccc(C)n12`, under setting [1], the AC50 is 20.6 µM [rising, single point].
With `Cc1cc(Br)ccc1NC(=O)CN(C)C(=O)CNC(=O)Cc1ccccc1`, the cell number change came out at 12.9%. Moreover, the half-maximal activity concentration (AC50) under setting [2] is 6.51 µM [rising, single point].
For `COc1ccc(/C=C/C(=O)OCC(=O)NCCC2=CCCCC2)cc1S(=O)(=O)N1CCOCC1`, the half-maximal activity concentration (AC50) under setting [2] is 0.103 µM [falling, full curve, poor fit].
For `CCOc1cccc(C(=O)NCc2ccccc2)c1`, the cell number change was -13.7%. The concentration at half-maximal activity (AC50) under setting [1] was 16.4 µM [falling, single point].
In the case of `COc1ccc(-n2nnc3c(SC(C(C)=O)C(=O)N(C)C)ncnc32)cc1` (stereo not drawn), the cell number change stood at 15%. Under setting [1], the concentration at half-maximal activity (AC50) is 29.1 µM [rising, single point].
Take `O=C1NC2(CCCCC2)C(=O)N1c1ccc(Cl)cc1`: the cell number change is -14.6%.
On to `Cc1cccc(-c2cc3nc(C)cc(NCCCn4ccnc4)n3n2)c1`, for which the cell number change amounted to 30.9%. Moreover, the AC50 under setting [1] is 18.4 µM [rising, single point].
For the compound `COC(=O)c1cn(C(=O)c2cccc(Br)c2)c2ccccc12`, the cell number change came to 28.5%. The AC50 under setting [1] was 10.3 µM [rising, partial curve].
For `COc1ccc(C2C3=C(CC(C)(C)CC3=O)Oc3ncn(CCCn4ccnc4)c(=N)c32)cc1` (stereo not drawn), the cell number change stood at 1.87%. In addition, the AC50 under setting [1] was 0.651 µM [rising, full curve].
On to `COc1ccc(-c2c(C)oc3ccc(C)cc23)cc1`, for which the cell number change turned out to be 11.6%.
On to `CC1C(=NO)C(C)C(c2ccccc2)NC1c1ccccc1` (stereo not drawn), for which the concentration at half-maximal activity (AC50) under setting [1] was 3.66 µM [falling, partial curve].
As to `Cc1cc(C(=O)NCCN2CCCCC2C)n(-c2ccccc2)n1` (stereo not drawn), the cell number change was -37.9%. Further, the AC50 under setting [2] was 16.4 µM [falling, partial curve, poor fit]. Besides, under setting [1], the AC50 was 25.9 µM [falling, partial curve, poor fit].
As to `Cc1ccc(CC(=O)N2CCN(c3ccccn3)CC2)cc1`, the cell number change was 0.196%. Besides, the AC50 under setting [1] was 18.4 µM [rising, single point].
As to `COc1ccc(S(=O)(=O)Nc2cc3c(C(C)=O)c(C)oc3c3ccccc23)cc1`, under setting [1], the AC50 was 0.58 µM [rising, partial curve, poor fit].
`O=C(NCCCNC(=O)c1ccccc1F)c1ccco1`: the cell number change is -3.75%.
In the case of `COc1ccc(-c2nnc3n2N=C(c2ccccc2)CS3)cc1OC`, the cell number change amounted to 18.2%. The AC50 under setting [1] is 1.16 µM [rising, partial curve].
`COCCN(C(=O)COC(=O)c1cccnc1SC)c1c(N)n(Cc2ccccc2)c(=O)[nH]c1=O`: under setting [1], the half-maximal activity concentration (AC50) was 14.6 µM [falling, single point].
Regarding `CC(C)=CCc1c(O)c(CC=C(C)C)c2occ(-c3ccc(O)cc3)c(=O)c2c1O`, the cell number change is -73.3%. Also, the AC50 under setting [2] is 23.1 µM [falling, partial curve]. Under setting [1], the concentration at half-maximal activity (AC50) was 23.1 µM [falling, partial curve].
As for `O=C(Cc1ccc(Br)cc1)NCc1ccccc1`, the cell number change was -12.3%. The AC50 under setting [1] was 29.1 µM [falling, single point].
In the case of `CC(C)N(CC#CCC(O)(c1ccccc1)c1ccccc1)C(C)C`, the cell number change was -9.5%. For the same compound, the AC50 under setting [1] is 0.461 µM [falling, full curve, poor fit].
Regarding `O=S(=O)(c1cccnc1)N1CCn2cccc2C1c1ccccc1F` (stereo not drawn), under setting [1], the concentration at half-maximal activity (AC50) is 0.184 µM [rising, full curve].
Take `Cc1cccc(CN2CCN(C(=O)CCl)CC2)c1`: the cell number change was -14.9%. The AC50 under setting [1] is 18.4 µM [falling, single point].
Turning to `Cc1ncsc1CCOC(=O)c1ccc(N2CCOCC2)c([N+](=O)[O-])c1`, the cell number change is -35.4%.
Regarding `CCn1c(C)c(CS(=O)(=O)c2ccccc2)[nH]c1=O`, the cell number change is -0.875%. In addition, under setting [2], the half-maximal activity concentration (AC50) is 0.731 µM [falling, full curve]. Under setting [1], the AC50 is 0.461 µM [falling, full curve].
Regarding `COc1ccccc1-n1c(CNC(=O)c2cccs2)n[nH]c1=S`, the cell number change was -14.6%. Besides, the AC50 under setting [1] is 0.00206 µM [falling, full curve, poor fit].
Take `COc1ccc(-c2noc(N3CCC(C(=O)NCCCN4CCCC(C)C4)CC3)n2)cc1` (stereo not drawn): the cell number change is -5.76%. Further, the AC50 under setting [1] is 6.51 µM [rising, single point].
Consider `COc1ccc(-c2cc(-c3c(O)c(OC)c4occc4c3OC)[nH]n2)cc1OC`, for which the concentration at half-maximal activity (AC50) under setting [1] was 0.164 µM [falling, full curve, poor fit].
For the compound `COc1ccc(Cl)cc1NC(=O)C1CCCN(S(C)(=O)=O)C1` (stereo not drawn), the cell number change is -21.3%.
On to `COc1cc(OC)cc(-c2cc(N)n(S(=O)(=O)c3cccc4nsnc34)n2)c1`, for which, under setting [2], the concentration at half-maximal activity (AC50) is 2.31 µM [rising, single point].
As to `COc1ccc(CNC(=O)C2CCN(S(=O)(=O)c3cccc4cccnc34)CC2)cc1`, the cell number change was 41.8%. Moreover, the AC50 under setting [2] is 4.11 µM [rising, full curve]. For the same compound, under setting [1], the concentration at half-maximal activity (AC50) was 3.66 µM [rising, full curve].
`COc1cccc(NC(=O)CN(C)C(=O)CN2C(=O)NC(C)(c3ccc(C)cc3)C2=O)c1` (stereo not drawn): the cell number change was found to be 7.9%. Also, the concentration at half-maximal activity (AC50) under setting [1] was 0.517 µM [falling, single point].
